Test results published in patent US20150030595A1.
Results are given in words; binding and its absence hold for the method and conditions named. Some results given as binding are weak or reduced against the parent protein; the word gives no strength.

By UniProt entry, the sequences of proteins in these tests, tags left out. Residues count along the entry.
UniProt P80370, residues 24-383: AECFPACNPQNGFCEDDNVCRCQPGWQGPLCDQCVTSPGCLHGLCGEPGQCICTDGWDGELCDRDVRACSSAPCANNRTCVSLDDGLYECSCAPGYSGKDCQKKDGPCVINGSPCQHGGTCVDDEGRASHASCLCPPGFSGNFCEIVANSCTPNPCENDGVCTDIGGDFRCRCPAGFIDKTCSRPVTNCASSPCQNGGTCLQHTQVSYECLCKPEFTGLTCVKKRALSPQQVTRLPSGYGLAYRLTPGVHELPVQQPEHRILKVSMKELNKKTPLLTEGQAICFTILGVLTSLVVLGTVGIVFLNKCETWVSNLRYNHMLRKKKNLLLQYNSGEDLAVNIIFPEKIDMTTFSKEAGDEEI

Key:
[1] = molecular target: DLK1 on 293E cells expressing DLK1 (UniProt P80370); test: flow cytometry on 293E cells expressing DLK1
[2] = molecular target: DLK1 on 293E cells expressing DLK1 (UniProt P80370); test: flow cytometry and immunofluorescent staining
[3] = molecular target: T1, DLK1 in the lysate of the myoblast C2C12 cell line (UniProt Q09163); test: immunoprecipitation from C2C12 lysate with B09, western blot with DLK1 antibody
T1 sequence (looked up): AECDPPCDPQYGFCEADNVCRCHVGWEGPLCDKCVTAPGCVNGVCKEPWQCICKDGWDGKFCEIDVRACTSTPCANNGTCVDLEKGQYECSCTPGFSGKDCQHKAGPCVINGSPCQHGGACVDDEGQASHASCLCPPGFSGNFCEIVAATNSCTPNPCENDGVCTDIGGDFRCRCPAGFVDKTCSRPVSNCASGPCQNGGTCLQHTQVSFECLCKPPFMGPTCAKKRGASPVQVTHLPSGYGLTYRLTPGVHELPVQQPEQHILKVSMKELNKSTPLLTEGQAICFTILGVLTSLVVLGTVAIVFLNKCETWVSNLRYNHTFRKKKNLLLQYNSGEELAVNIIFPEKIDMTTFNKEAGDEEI

[4] = molecular target: DLK1 on 293E cells expressing DLK1 (UniProt P80370); test: flow cytometry on 293E cells (upper panel); immunofluorescent staining (lower panel)

- binding [1]: binds
- binding [2]: binds
- binding [3]: binds
- binding [4]: binds
B1: human antibody B09 (full-length IgG) (antibody, V domains shown)
VH: QMQLVESGGRLVRPGGSLRLSCAASGFPFTSYAMNWVRQTPGKGLEWVSTITATSGKTYYADSVKGRFTISRDNSRNTLFLQMNSLRAEDTAVYYCVRGESCSGGACSDFDYWGQGALVTVSS
VL: QLVLTQPASVSGSPGQSVTISCTGTSSDIGRYNRVSWYQHHPGKAPKLILNDVTTRPSGFSNRFSGSKSGNTASLTISGLQAEDEADYSCGSYAGSYTYVFGTGTKVTVL
